These results are taken from PubChem BioAssay AID248 (DTP/NCI, 2004).

The structures appear in SMILES notation. The list is a part of this screen's results and no random one: it gathers tests that were run many times, whatever their T/C, doses with no T/C, and many T/C values between a quarter and a half above the control. Further doses and runs are listed elsewhere. T/C gives the treated animals as a percentage of the vehicle group. Some entries give survivors of the animals treated and no T/C: the source holds a T/C of zero for them, seemingly a mark for toxic or unscored doses. Some doses without a T/C left all or most animals alive at the check, yet need not have been tolerated: survival well below the control is almost never listed, so the zero probably covers shortened survival too. Survivors were counted at the toxicity check, usually on the fifth day, unless a day is given; later deaths do not show. Schedule codes are those of the source, read here as Q, the interval in days (D) or hours (H), X, the number of doses. Where survival is the endpoint, the PubChem record calls one and a half times the control and up active, and a quarter to a half above the control has no call in these data; cut-offs in other NCI protocols can differ.

The test system of this assay is L1210 leukemia ip in BDF1 mice, survival T/C. Briefly: NCI In Vivo Anticancer Drug Screen. Data for tumor model L1210 Leukemia (intraperitoneal) in B6D2F1 (BDF1) mice. The following applies: T/C endpoint: mean survival time, vehicle: saline, higher T/C = longer survival.

Consider `Nc1ncn(C2CC(O)C(CO)O2)c(=O)n1` (stereo not drawn), for which the T/C is 148 % of control (dose: 0.03 mg/kg/injection, schedule: Q01DX005 (ip)); 141 % of control (dose: 0.08 mg/kg/injection, schedule: Q01DX005 (ip)); 149 % of control (dose: 0.19 mg/kg/injection, schedule: Q01DX005 (ip)); 131 % of control (dose: 0.39 mg/kg/injection, schedule: Q01DX005 (ip)); 143 % of control (dose: 133.0 mg/kg/injection, schedule: Q04DX003 (ip)); 132 % of control (dose: 200.0 mg/kg/injection, schedule: Q01DX001 (ip)). Besides, the T/C was 148 % of control (dose: 200.0 mg/kg/injection, schedule: Q04DX003 (ip)); 141 % of control (dose: 5.7 micrograms/kg/injection, schedule: Q01DX005 (ip)); 139 % of control (dose: 8.5 micrograms/kg/injection, schedule: Q01DX005 (ip)). In addition, the survivor count was 6 of 6 (dose: 6.25 mg/kg/injection, schedule: Q01DX005 (ip)); 6 of 6 (dose: 12.5 mg/kg/injection, schedule: Q01DX005 (ip)); 6 of 6 (dose: 25.0 mg/kg/injection, schedule: Q01DX005 (ip)); 6 of 6 (dose: 50.0 mg/kg/injection, schedule: Q01DX005 (ip)); 5 of 6 (dose: 100.0 mg/kg/injection, schedule: Q01DX005 (ip)); 5 of 6 (dose: 200.0 mg/kg/injection, schedule: Q01DX005 (ip)). The survivor count runs as follows: (dose: 300.0 mg/kg/injection, schedule: Q01DX005 (ip)) 5 of 6; (dose: 400.0 mg/kg/injection, schedule: Q01DX001 (ip)) 6 of 6; (dose: 600.0 mg/kg/injection, schedule: Q01DX001 (ip)) 6 of 6.
